Results of single-concentration screens

The chains behind the UniProt entries cited, without tags or fusion partners. Residues count along the entry.
UniProt P9WPC5, whole entry: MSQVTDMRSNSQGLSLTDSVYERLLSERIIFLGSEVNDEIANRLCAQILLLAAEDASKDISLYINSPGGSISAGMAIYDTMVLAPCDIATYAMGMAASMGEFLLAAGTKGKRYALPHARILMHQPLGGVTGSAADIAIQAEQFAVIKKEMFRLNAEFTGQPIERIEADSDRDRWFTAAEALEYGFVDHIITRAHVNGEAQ
UniProt P9WPC3, whole entry partner: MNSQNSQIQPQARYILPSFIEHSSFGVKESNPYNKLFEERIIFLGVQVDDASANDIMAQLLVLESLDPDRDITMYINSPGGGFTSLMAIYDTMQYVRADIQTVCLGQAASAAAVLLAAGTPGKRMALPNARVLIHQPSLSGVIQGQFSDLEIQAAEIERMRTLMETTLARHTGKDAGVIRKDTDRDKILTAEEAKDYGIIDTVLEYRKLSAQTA
UniProt P9WFT3, whole entry: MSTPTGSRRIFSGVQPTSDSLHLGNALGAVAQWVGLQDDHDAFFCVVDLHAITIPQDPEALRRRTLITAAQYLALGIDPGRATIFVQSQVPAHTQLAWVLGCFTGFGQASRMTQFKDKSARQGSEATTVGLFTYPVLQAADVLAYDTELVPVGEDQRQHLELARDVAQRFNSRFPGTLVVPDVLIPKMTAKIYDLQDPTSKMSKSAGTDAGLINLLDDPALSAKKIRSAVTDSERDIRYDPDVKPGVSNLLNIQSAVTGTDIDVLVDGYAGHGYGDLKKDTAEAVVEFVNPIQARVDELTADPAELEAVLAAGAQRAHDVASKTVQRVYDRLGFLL
UniProt I6X8D2, whole entry: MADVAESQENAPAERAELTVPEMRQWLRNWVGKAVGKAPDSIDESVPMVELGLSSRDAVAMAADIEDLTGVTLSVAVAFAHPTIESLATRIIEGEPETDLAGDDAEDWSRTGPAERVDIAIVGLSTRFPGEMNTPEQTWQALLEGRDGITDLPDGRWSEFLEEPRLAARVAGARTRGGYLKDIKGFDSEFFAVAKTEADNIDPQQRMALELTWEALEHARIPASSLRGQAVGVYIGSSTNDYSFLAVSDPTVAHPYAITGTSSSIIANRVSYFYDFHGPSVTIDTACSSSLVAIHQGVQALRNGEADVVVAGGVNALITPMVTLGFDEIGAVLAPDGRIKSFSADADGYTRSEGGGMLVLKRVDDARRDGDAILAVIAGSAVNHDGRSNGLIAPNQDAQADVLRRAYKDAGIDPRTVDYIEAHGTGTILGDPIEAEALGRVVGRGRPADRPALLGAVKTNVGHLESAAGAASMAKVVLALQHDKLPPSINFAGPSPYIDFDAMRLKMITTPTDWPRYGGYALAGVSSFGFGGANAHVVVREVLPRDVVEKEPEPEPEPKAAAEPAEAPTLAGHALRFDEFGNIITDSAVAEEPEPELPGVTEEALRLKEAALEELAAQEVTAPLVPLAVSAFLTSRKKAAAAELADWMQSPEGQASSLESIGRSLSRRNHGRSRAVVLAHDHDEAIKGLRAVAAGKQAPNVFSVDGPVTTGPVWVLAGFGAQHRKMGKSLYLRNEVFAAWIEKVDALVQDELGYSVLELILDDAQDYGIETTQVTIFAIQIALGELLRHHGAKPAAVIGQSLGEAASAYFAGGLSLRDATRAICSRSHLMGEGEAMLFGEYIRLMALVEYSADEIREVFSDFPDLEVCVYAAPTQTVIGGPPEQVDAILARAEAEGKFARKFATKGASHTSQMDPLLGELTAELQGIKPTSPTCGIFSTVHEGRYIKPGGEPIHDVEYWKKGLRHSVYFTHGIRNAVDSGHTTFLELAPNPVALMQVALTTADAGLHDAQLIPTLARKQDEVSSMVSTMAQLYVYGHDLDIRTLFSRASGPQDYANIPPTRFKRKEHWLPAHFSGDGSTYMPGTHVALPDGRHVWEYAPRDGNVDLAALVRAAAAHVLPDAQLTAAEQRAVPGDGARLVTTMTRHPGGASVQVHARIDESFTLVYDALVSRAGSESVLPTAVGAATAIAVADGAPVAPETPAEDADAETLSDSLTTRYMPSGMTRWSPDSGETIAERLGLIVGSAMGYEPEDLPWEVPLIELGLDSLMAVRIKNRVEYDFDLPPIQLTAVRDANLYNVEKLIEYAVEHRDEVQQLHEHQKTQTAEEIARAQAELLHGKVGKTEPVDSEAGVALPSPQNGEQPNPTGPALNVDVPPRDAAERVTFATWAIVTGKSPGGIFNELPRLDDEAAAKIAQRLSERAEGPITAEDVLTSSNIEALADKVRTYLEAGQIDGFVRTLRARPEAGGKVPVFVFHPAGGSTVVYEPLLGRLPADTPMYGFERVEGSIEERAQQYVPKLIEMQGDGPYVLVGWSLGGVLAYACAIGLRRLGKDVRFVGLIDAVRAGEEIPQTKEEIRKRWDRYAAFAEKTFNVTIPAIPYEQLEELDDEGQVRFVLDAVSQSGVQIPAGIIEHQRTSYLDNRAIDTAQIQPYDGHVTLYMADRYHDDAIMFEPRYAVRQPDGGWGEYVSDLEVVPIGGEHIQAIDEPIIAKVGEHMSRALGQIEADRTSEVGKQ
UniProt Q8IDJ8, 1-583: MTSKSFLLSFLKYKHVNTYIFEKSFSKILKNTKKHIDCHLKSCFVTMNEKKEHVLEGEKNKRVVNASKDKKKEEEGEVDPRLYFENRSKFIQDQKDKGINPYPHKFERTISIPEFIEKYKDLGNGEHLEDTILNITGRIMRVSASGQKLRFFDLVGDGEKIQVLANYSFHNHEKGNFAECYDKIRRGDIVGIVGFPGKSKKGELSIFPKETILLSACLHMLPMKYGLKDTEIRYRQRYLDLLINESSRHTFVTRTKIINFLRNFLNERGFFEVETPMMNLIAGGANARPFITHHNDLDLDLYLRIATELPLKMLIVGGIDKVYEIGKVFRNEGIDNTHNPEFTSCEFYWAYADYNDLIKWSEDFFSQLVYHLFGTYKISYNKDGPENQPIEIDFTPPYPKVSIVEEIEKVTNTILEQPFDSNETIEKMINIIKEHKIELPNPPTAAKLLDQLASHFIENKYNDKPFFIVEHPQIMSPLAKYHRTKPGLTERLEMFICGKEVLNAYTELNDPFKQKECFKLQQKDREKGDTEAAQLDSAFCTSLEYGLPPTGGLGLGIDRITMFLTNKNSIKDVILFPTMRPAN

From ChEMBL document CHEMBL3988442, “University of Dundee, Small-Polar-MMV Screening Library” (2021).

ClpP1P2: 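ClpP1P2, Mycobacterium tuberculosis (UniProt P9WPC5 and UniProt P9WPC3). Protease assay of ClpP1P2, read by the AMC dye that it sets free. Concentration: 50 µM. Direction is inferred from only a few compounds that gave an IC50; most scored high, so higher reads as stronger inhibition. Most other retested compounds had strongly negative values. Of about 69,000 compounds tested this way, about 10 (0.015%) reached 50% or more in at least one test.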
MtTrpRS: 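Tryptophan-tRNA ligase, Mycobacterium tuberculosis (UniProt P9WFT3). Enzyme assay of tryptophanyl-tRNA synthetase; the read-out is not stated. Concentration: 10 µM. Direction is not recorded; retested compounds ran higher, which suggests that high means inhibition. Size under these conditions: about 65,000 compounds, about 64 of them at 50% or above in at least one test.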
Pks13 thioesterase: 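Polyketide synthase Pks13, Mycobacterium tuberculosis (UniProt I6X8D2). Enzyme assay of the thioesterase domain of polyketide synthase 13; the read-out is not stated. Tested at 30 µM. Higher reads as stronger inhibition (inferred from which compounds were picked for retests). About 67,000 compounds were tested under these conditions; 0.46% (about 300) showed 50% or more at least once.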
PfKRS1: 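Lysine-tRNA ligase, Plasmodium falciparum 3D7 (UniProt Q8IDJ8). Enzyme assay of the cytosolic lysyl-tRNA synthetase in 384-well plates, read by luminescence. Compounds at 30 µM. Direction is inferred from only a few compounds that gave an IC50; most scored high, so higher reads as stronger inhibition. Size under these conditions: about 69,000 compounds, about 49 of them at 50% or above in at least one test.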

The filed quantity is “Percent Effect” (%). How 0% and 100% were set is not recorded. Most values in the screen are low, and negative values occur. This is an unselected part of the compounds tested. A dash means the value is not listed here; it may have been measured.

structure,ClpP1P2,MtTrpRS,Pks13 thioesterase,PfKRS1
CC(C)N1CCCC2(CCN(Cc3noc(C4CCCC4)n3)C2)C1=O (centres undefined),8.856%,54.24%,0.8001%,9.721%
CC(C)c1cc(N2CCC3(CCN(C)C3)C2)ncn1 (centres undefined),0.1026%,-1.232%,0.6843%,-1.41%
CNCC[C@H]1CC(C)(C)Oc2ccc(OC)cc21,12.66%,-,16.16%,5.419%
CNc1nc(N2CCN(Cc3ccsc3)C(CCO)C2)nc2c1CCC2 (centres undefined),-8.169%,-2.102%,-31.1%,4.539%
CCN(Cc1ccccc1C)S(C)(=O)=O,-11.72%,-4.352%,-35.73%,2.251%
Cc1cccc(N2CCC(N3CCC4(CN(C)C(=O)O4)C3)CC2)c1C (centres undefined),8.062%,0.6937%,-26.55%,14.58%
CC(=O)N1CCCN(C(=O)CCc2c(C)nc3ccnn3c2C)CC1,0.3284%,2.652%,-5.224%,1.323%
COc1ccc2c(c1)CC(C1CCOCC1)N(C(=O)c1ccn(C)n1)C2 (centres undefined),-11.77%,-2.474%,1.973%,-1.267%
O=C(CN1CC(c2nc(Cc3ccccc3)no2)C1)NCC1CCCO1 (centres undefined),-9.475%,0.076%,-12.17%,9.405%
CC(=O)N1CCC2(CCN(S(=O)(=O)c3ccccc3)CC2)C1,6.574%,6.541%,-49.85%,-2.253%
CC(Cn1cccn1)NCc1csc(-c2ccc(F)cc2)n1 (centres undefined),-1.213%,-0.6518%,1.505%,4.257%
Cc1ccc(C(=O)N2C[C@@H]3CN(S(C)(=O)=O)CCO[C@@H]3C2)o1,-13.19%,-4.863%,-20.04%,2.005%
O=C(C1CC(=O)N(c2ccccc2)C1)N1CCC2(CC1)OCCO2 (centres undefined),-5.565%,-4.056%,-15.08%,2.186%
O=c1cnc2ccccc2n1CCCn1ccnc1,2.888%,1.36%,-92.72%,4.048%
O=C(O)C(c1ccc2[nH]ccc2c1)N1CCN(c2cnccn2)CC1 (centres undefined),-6.41%,-2.22%,-11.49%,-3.254%
Cc1cc(NC(=O)NCCc2ccccc2)n(C)n1,1.352%,0.09234%,-26.57%,0.6511%
CCC(CO)N(Cc1ccccn1)C(=O)c1ccc(CSC)o1 (centres undefined),11.1%,-2.021%,-14.71%,4.872%
CC(C)c1nc(-c2cc(C(=O)O)c3ccccn23)cs1,-14%,8.815%,4.965%,-0.5665%
Cc1ccc(N2CCO[C@H]3CN(Cc4cnn(C)c4)C[C@H]32)nn1,-1.853%,-2.18%,-13.84%,0.5705%
O=C(Cc1ccccc1Cl)N1CCCC(n2cncn2)C1 (centres undefined),1.159%,-3.638%,-0.4558%,2.86%
COCCNC(=O)C1CN(Cc2cccnc2)Cc2ccnn2C1 (centres undefined),4.694%,-6.667%,-5.733%,4.691%
O=c1[nH]nc2c(N3CCCCCC3)nccn12,12.32%,-0.7779%,-20.64%,3.922%
Cc1nc(C2CCN(S(=O)(=O)c3ccc4c(c3)CCO4)CC2)n[nH]1,3.51%,-2.926%,-56.89%,2.634%
COCCNC(=O)[C@H]1CN(Cc2nccs2)C[C@H]2OCC[C@@H]12,-2.533%,3.701%,-10.53%,1.178%
CC(C)OCCN1CCC(Nc2nccnc2C#N)CC1,-46.8%,0.1514%,-15.63%,-1.464%
Cc1nc(C)n(CC2CCCN2Cc2cc(-c3cccs3)on2)n1 (centres undefined),-18.49%,-1.569%,-19.19%,-1.556%
c1cnn(Cc2cn3c(n2)CN(Cc2nccs2)CC3)c1,-4.916%,0.1103%,-3.62%,4.708%
CCCc1noc(C(C)N2CCN(c3ccc(C#N)cn3)CC2)n1 (centres undefined),3.056%,-6.616%,-8.406%,3.934%
N#CCCN1CCN(S(=O)(=O)c2ccc(Cl)s2)CC1,22.95%,-2.452%,10.36%,1.103%
O=C(CNC(=O)c1c[nH]c2ccccc12)NCCCn1ccnc1,0.1604%,-3.875%,-38.58%,1.664%
Cc1cc(-c2cnc(NC3CCCCC3)nc2-c2ccco2)on1,0.3301%,-,14.99%,5.228%
COc1cc2nc(C)n(CC(=O)NCCN(C)C)c(=O)c2cc1OC,-13.97%,0.719%,-13.84%,0.9751%
COC(C)c1cccc(NCc2cccc(O)c2)c1 (centres undefined),-7.541%,4.198%,-31.76%,-0.4873%
Cc1ccc(CN2Cc3c(C(=O)N(C)C)nn(C)c3C2)s1,-0.2752%,-1.398%,-,-3.259%
CSC(C)(C)CNC(=O)NCc1cccc(-n2cncn2)c1,1.594%,1.143%,-33.06%,0.1001%
Cc1ccc2nc(CN3CCC(O)(CN4CCCC4)CC3)cc(O)c2c1,-3.807%,-2.183%,-26.48%,6.367%
CCc1nc(C2CCCN2C(=O)c2cnns2)no1 (centres undefined),-24.51%,-6.864%,-10.4%,9.086%
O=C(CCNC(=O)c1ccc(Cl)cc1)NCc1nc(C2CC2)no1,6.578%,2.207%,-38.84%,3.607%
CCc1ccsc1C(=O)N1CCN(C(=O)c2ccc(C)o2)CC1,2.989%,-2.401%,-26.27%,4.008%
O=C(NCc1ccccc1-n1cccn1)C1CC2(CCNCC2)CN1 (centres undefined),-12.24%,0%,-8.738%,5.209%

2 of the entries, repeated:

- COCCNC(=O)[C@H]1CN(Cc2nccs2)C[C@H]2OCC[C@@H]12 | ClpP1P2: -2.533%; MtTrpRS: 3.701%; Pks13 thioesterase: -10.53%; PfKRS1: 1.178%
- CCc1nc(C2CCCN2C(=O)c2cnns2)no1 (centres undefined) | ClpP1P2: -24.51%; MtTrpRS: -6.864%; Pks13 thioesterase: -10.4%; PfKRS1: 9.086%